Data: PMC3507953
These are yes or no findings as the source states them, for the method shown. Binding seen in cells or lysates may run through a third protein. Some binding calls cover weakened binding; strength is not graded here. Sequences can lack the tags named with a protein.

Tests used:
3Flag-Zfp423 (293T) = target: T1, 3Flag-Zfp423 (293T) (UniProt Q80TS5); test: co-IP; 293T cells transiently transfected (48 h) with 2HA-Zfp521, 3Flag-Zfp423 and 6Myc-Ebf1 in combinations (also without Ebf1); immunoprecipitation with anti-Flag, anti-HA or anti-Myc as indicated, blots with the same antibodies
T1 sequence: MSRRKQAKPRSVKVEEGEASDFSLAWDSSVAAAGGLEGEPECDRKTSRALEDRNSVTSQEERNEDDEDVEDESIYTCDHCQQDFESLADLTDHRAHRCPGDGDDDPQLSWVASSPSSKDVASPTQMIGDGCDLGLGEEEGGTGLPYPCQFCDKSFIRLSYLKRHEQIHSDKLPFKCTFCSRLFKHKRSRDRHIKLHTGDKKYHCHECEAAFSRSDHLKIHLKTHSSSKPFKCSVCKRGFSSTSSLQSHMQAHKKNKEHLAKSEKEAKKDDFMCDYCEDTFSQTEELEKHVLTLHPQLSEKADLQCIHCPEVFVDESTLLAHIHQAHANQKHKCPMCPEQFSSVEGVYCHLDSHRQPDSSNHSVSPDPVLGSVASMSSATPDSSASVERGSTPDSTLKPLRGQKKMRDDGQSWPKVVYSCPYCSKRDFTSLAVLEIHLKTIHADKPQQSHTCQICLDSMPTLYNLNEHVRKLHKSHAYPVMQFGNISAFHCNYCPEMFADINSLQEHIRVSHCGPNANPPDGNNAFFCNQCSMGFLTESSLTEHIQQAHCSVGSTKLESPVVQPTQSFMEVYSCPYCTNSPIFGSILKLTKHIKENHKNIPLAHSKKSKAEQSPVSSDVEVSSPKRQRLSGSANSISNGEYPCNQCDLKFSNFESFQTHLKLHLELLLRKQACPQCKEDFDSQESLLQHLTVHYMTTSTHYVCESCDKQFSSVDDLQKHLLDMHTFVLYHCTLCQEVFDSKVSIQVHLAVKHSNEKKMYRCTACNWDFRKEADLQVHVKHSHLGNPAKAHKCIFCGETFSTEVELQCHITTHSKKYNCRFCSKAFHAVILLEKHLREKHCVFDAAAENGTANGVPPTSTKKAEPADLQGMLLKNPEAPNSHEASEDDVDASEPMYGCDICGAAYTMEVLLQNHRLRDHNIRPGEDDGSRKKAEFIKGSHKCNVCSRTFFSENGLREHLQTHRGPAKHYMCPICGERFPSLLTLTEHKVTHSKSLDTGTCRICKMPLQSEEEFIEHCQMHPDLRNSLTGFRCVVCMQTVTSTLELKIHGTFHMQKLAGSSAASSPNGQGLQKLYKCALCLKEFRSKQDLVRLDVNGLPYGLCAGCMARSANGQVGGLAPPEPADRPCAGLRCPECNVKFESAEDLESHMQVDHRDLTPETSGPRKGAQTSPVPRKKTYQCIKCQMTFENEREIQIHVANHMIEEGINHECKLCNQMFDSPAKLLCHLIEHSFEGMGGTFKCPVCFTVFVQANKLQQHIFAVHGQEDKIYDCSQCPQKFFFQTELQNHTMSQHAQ

6Myc-Ebf1 (293T) = target: T2, 6Myc-Ebf1 (293T) (UniProt Q07802); test: as above
T2 sequence: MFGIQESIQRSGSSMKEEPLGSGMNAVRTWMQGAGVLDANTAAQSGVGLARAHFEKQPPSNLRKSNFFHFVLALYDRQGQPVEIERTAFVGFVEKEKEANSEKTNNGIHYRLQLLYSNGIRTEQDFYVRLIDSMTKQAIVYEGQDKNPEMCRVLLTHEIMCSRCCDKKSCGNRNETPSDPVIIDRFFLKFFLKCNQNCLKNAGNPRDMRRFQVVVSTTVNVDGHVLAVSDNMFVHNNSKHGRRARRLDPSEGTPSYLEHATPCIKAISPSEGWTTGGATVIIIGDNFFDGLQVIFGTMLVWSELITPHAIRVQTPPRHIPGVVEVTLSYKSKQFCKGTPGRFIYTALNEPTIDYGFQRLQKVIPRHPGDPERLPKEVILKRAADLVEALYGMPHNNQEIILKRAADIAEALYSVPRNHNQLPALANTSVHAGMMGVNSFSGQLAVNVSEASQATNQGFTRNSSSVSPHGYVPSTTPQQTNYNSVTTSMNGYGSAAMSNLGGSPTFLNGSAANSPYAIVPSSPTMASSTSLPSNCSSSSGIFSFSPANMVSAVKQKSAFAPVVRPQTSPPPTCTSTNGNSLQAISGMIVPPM

binding (3Flag-Zfp423 (293T)): binds | binding (6Myc-Ebf1 (293T)): binds
B1: 2HA-Zfp521 (293T) (protein, UniProt Q6KAS7 1-1311)
chain: MSRRKQAKPRSLKDPNCKLEDKIEDGEAVDCKKRPEDGEELEEDAVHSCDSCLQVFESLSDITEHKIHQCQLTDGVDVEDDPSCSWPASSPSSKDQTSPSHGEGCDFGEEEGGPGLPYPCQFCDKSFSRLSYLKHHEQSHSDKLPFKCTYCSRLFKHKRSRDRHIKLHTGDKKYHCSECDAAFSRSDHLKIHLKTHTSNKPYKCAVCRRGFLSSSSLHGHMQVHERNKDGSQSGSRMEDWKMKDTQKCSQCEEGFDFPEDLQKHIAECHPECSPNEDRAALQCMYCHELFVEETSLMNHIEQVHGGEKKNSCSICSESFLTVEELYSHMDSHQQPESCNHSNSPSLVTVGYTSVSSTTPDSNLSVDSSTMVEAAPPIPKSRGRKRAAQQTSDMTGPSSKQAKVTYSCIYCNKQLFSSLAVLQIHLKTMHLDKPEQAHICQYCLEVLPSLYNLNEHLKQVHEAQDPGLIVSAMPAIVYQCNFCSEVVNDLNTLQEHIRCSHGFANPAAKDSNAFFCPHCYMGFLTDSSLEEHIRQVHCDLSGSRFGSPVLGTPKEPVVEVYSCSYCTNSPIFNSVLKLNKHIKENHKNIPLALNYIHNGKKSRALSPLSPVAIEQTTLKMMQTVGGGPARASGEYICNQCGAKYTSLDSFQTHLKTHLDTVLPKLTCPQCNKEFPNQESLLKHVTIHFMITSTYYICESCDKQFTSVDDLQKHLLDMHTFVFFRCTLCQEVFDSKVSIQLHLAVKHSNEKKVYRCTSCNWDFRNETDLQLHVKHNHLENQGKVHKCIFCGESFGTEVELQCHITTHSKKYNCRFCSKAFHAVILLEKHLREKHCVFETKTPNCGTNGASEQVQKEEAELQTLLTNSQESHNSHDGSEEDVDSSEPMYGCDICGAAYTMETLLQNHQLRDHNIRPGESAIVKKKAELIKGNYKCNVCSRTFFSENGLREHMQTHLGPVKHYMCPICGERFPSLLTLTEHKVTHSKSLDTGNCRICKMPLQSEEEFLEHCQMHPDLRNSLTGFRCVVCMQTVTSTLELKIHGTFHMQKTGNGSSVQTTGRGQHVQKLYKCASCLKEFRSKQDLVKLDINGLPYGLCAGCVNLSKSSSPGLSLPPGASRPGLGQNESLSAMEGKGKAGGLKTRCSSCNVKFESESELQNHIQTVHRELVPDANSTQLKTPQVSPMPRISPSQSDEKKTYQCIKCQMVFYNEWDIQVHVANHMIDEGLNHECKLCSQTFDSPAKLQCHLIEHSFEGMGGTFKCPVCFTVFVQANKLQQHIFSAHGQEDKIYDCTQCPQKFFFQTELQNHTMTQHSS
